Among all 300,000 compounds or so, about 3,700 (1.2%) were called active. Inconclusive means that the source gave no clear call. Such entries were picked first, then a sample of the others. The call rests on the fitted dose curve; tested in HEK293 cells. A potency beside an inconclusive call is a rough fit, not a confirmed value.
Test: qHTS for Inhibitors of binding or entry into cells for Lassa Virus; further: nearly all actives have a fitted effect of over 50% in size
Details: Lassa virus pseudotype entry inhibition, cell reporter; activity change, negative = inhibition: at 37.9 µM (top of the series) unless noted
In the case of CC(C)[C@H](NC(=O)OCc1ccccc1)C(=O)OCC(=O)c1ccccc1, the Potency is reported as inconclusive: 8.91 µM [inhibitor, partial curve].
With COc1c(C(=O)Nc2ccccc2N2CCOCC2)cc2ccccc2c1Br the Potency was inconclusive: 10 µM [inhibitor, partial curve].
In the case of COc1ccc(NC(=O)c2ccc(S(=O)(=O)N3CCCCC3)cc2)c(OC)c1, the “activity change, negative = inhibition” value is reported as inactive: 2.75% [at 46.1 µM].
In the case of O=C1C(Cl)=C(NCC2CCCO2)C(=O)N1CCc1ccccc1 (configuration not stated), the “activity change, negative = inhibition” value is reported as inactive: -4.89%.
In the case of CCN(CC)c1ccc(-n2cc3c(=O)n(C)c(=O)n(C)c3c2)cc1, the Potency is reported as inconclusive: 29.1 µM [inhibitor, single point].
With Cc1cccc(N2CCN(C(=O)C3CCN(c4ncnc5c4nc4n5CCCCC4)CC3)CC2)c1C the Potency was inconclusive: 35.5 µM [inhibitor, single point].
For CCOC(=O)C1CCCN(c2ncnc3c2nnn3C)C1 (configuration not stated), the Potency was inconclusive: 5.62 µM [inhibitor, single point].
With CCC(C)NC(=O)CSc1nc2cc3c(cc2c(=O)n1Cc1ccc(C(=O)NCCc2ccc(OC)c(OC)c2)cc1)OCO3 (configuration not stated) the “activity change, negative = inhibition” value was inactive: -13.7% [at 46.1 µM].
With COc1cc(/C=N/NC(=O)CCn2cnc(-c3ccccc3)c2-c2ccccc2)ccc1O the Potency was inconclusive: 14.1 µM [inhibitor, partial curve, poor fit].
With Cc1ccc(-c2nc(CS(=O)(=O)CC(=O)NCCN3CCCC3)c(C)o2)cc1 the Potency was inconclusive: 25.1 µM [activator, partial curve, poor fit].
In the case of COc1ccccc1-c1nn(-c2ccccc2)cc1C(=O)N1CCN(C(=O)c2ccco2)CC1, the Potency is reported as inconclusive: 10 µM [inhibitor, single point].
With Cc1nn(Cc2ccc(Cl)cc2Cl)c(C)c1NC(=O)NC12CC3CC(CC(C3)C1)C2 the Potency was inconclusive: 35.5 µM [inhibitor, single point].
For COc1ccc(CNn2c(-c3cccc(C)c3)nc3ccccc3c2=O)cc1OC, the Potency was inconclusive: 29.1 µM [inhibitor, single point].
For Cc1cc2c(cc1C)C(c1ccccc1Br)CC(=O)N2 (configuration not stated), the Potency was inconclusive: 29.1 µM [inhibitor, single point].
For O=C(Nc1cccc2ccccc12)OC1C=CS(=O)(=O)C1 (configuration not stated), the “activity change, negative = inhibition” value was inactive: -18%.
For O=C(/C=C/c1cn(-c2ccccc2)nc1-c1ccc2c(c1)OCCO2)NCCCN1CCOCC1, the Potency was inconclusive: 2.51 µM [inhibitor, full curve, poor fit].
In the case of Cc1cc(C)c(NC(=O)CSc2nc3ccncc3[nH]2)c(C)c1, the Potency is reported as inconclusive: 1.78 µM [activator, partial curve, poor fit].
On the % scale 0 is the no-effect control and ±100 the full control effect; potency means the concentration at half of the fitted maximal effect.
